For at least one entry, the source does not settle the construct or the ends of the probe.
System: DNA endonuclease Q (EndoQ) (Pyrococcus furiosus)
Assay: stopped-flow FRET
Conditions: no significant cleavage; recombinant protein; protein details: N-terminal His tag (pET28c); label: 5'-FAM strand 1, 5'-BHQ1 strand 2

“GCTCACGTACAGAGCTG (double strand) [C/G (undamaged)]”: binds.

From PMC11354406
